Binding data for one substance are collected here from PMC6287014.

No constants are given. Whether binding was seen depends on the method and setting. Binding seen in cells or lysates may run through a third protein. Binding calls can cover weak binding; strength is not graded here.

Test [1] deals with T1, endogenous DREAM (mouse (endogenous in mouse brain and N2a cells)) (UniProt Q9QXT8).
T1 sequence: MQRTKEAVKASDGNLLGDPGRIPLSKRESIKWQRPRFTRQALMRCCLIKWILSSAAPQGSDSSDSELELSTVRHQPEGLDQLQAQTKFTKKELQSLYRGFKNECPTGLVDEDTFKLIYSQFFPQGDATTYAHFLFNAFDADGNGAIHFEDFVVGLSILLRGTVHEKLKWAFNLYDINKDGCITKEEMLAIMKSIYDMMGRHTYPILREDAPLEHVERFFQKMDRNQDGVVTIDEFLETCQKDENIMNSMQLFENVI
The test is described as follows: co-IP; whole cell extracts (200 ug) of N2a cells; IP with 5 ug mouse monoclonal anti-DREAM 1B1, western blot with anti-PS2. A general note: In western blotting, separated proteins are transferred to a membrane and probed.

The target of test [2] is T1, endogenous DREAM (mouse (endogenous in mouse brain and N2a cells)). The test is described as follows: co-IP; whole cell extracts (200 ug) of mouse hippocampus and cerebral cortex; IP with 5 ug mouse monoclonal anti-DREAM 1B1, western blot with anti-PS2.

In the case of “C-terminal PS2 fragment (Ct-PS2), endogenous (domain or fragment)”, the binding entry in test [1] and in test [2] was “binds” each time.
